These results are taken from article PMC3510510, “Structural insight of a concentration-dependent mechanism by which YdiV inhibits Escherichia coli flagellum biogenesis and motility” (Nucleic Acids Research, 2012).

First the molecules themselves.
B1: FlhD-His (natural protein, E. coli)
chain: MHTSELLKHIYDINLSYLLLAQRLIVQDKASAMFRLGINEEMATTLAALTLPQMVKLAETNQLVCHFRFDSHQTITQLTQDSRVDDLQQIHTGIMLSTRLLNDVNQPEEALRKKRA
notes: FlhD, E. coli; the flhD gene was cloned into pET29b and pGL01; source: E. coli BL21(DE3): co-expressed with YdiV (in lysate); purified as bait for the pull-down
B2: YdiV (natural protein, E. coli)
chain: MKIFLENLYHSDCYFLPIRDNQQVLVGVELITHFSSEDGTVRIPTSRVIAQLTEEQHWQLFSEQLELLKSCQHFFIQHKLFAWLNLTPQVATLLLERDNYAGELLKYPFIELLINENYPHLNEGKDNRGLLSLSQVYPLVLGNLGAGNSTMKAVFDGLFTRVMLDKSFIQQQITHRSFEPFIRAIQAQISPCCNCIIAGGIDTAEILAQITPFDFHALQGCLWPAVPINQITTLVQR
notes: YdiV, E. coli; the ydiV gene was cloned into pET29b and pGL01; His-tag removal by PPase is stated for prey proteins of the pull-down; The crystal of YdiV alone (3TLQ) was phased with Se-Met-YdiV; also called native YdiV; wild-type YdiV; source: E. coli BL21(DE3), purified (Ni2+-NTA, Source-Q, Superdex 200)

The target in one test is T1, FlhC-His (E. coli) (UniProt P0ABY7).
T1 sequence: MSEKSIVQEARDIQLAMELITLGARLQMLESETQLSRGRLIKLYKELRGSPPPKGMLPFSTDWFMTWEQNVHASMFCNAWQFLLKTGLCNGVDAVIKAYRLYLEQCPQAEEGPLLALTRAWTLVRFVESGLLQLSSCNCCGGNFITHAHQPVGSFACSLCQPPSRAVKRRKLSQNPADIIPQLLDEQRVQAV
Description: pull-down; co-expression in E. coli BL21(DE3) of YdiV with FlhD-His, FlhC-His or FlhDC-His; complex isolated through the His-tagged partner (Supplementary Figure S3A-C).

For the test “YdiV”, the target named is B2. Description: SEC; purified YdiV alone (Supplementary Figure S2); both purified.

Results are given in words; binding and its absence hold for the method and conditions named. For some assays here: In cells and extracts the contact can be indirect. Some entries that bind do so weakly or less than the wild type. For some assays here: Tags and fused reporters may be left off the sequences shown.

As to B1, the binding entry with FlhC-His (E. coli) was “binds”.
Take B2: the binding entry in the test with YdiV is “no binding”.
